Laboratory results from patent publication US12172988B2, “Anticancer and antifungal splice modulators” (priority 2021, dated 2024).
Some of these results come from one statement about several compounds together. At least one structure is not confirmed: it was looked up by name or label, or the drawing left a doubt.

Test system: HCT116 colorectal carcinoma cells
Assay: MTS cell viability / cell growth inhibition assay
Type: cell-based, human
Conditions: HCT116, 72 h treatment
Protocol: With milligram quantities of 1a-1i at hand, we began our studies to evaluate the relative efficacy of each analogue using cell growth inhibition studies in HCT116 colorectal carcinoma cells. As reported in FIG. 3, GI50 values were collected for each analog after a 72 h treatment using the MTS cell viability assay (Table 12). Under these conditions, the natural FD-895 (1), 3S-FD-895 (1a) 17S-FD-895 (1d), 17-methoxy-FD-895 (1e) provided activities of <10 nM.
HCT-116 cells was cultured in McCoy's 5a (Life Technologies) supplemented with 10% fetal bovine serum (FBS), 2 mM L-glutamine, and 100 U mL^−1 of penicillin and 100 μg mL^−1 of streptomycin at 37° C. in an atmosphere of 5% CO2. Compounds were dissolved in DMSO (MilliporeSigma). […]
Studies were conducted in 8 welled cell culture plates. […] After 2 h at 37° C., absorbance readings were taken at 490 nm (test wavelength) and 690 nm (reference wavelength). GI50 values were calculated in Prism (GraphPad) using greater 3 replicates.
Cells were treated with 1 or 1a-1j in media (McCoy's 5a (Life Technologies) supplemented with 10% FBS, 2 mM L-glutamine, and 100 U mL^−1 of penicillin and 100 μg mL^−1 of streptomycin 0.5% DMSO) for 4 h or 24 h. […] Quantification cycle (Cq) values were identified for each sample, and then RNA levels were calculated using 2-ΔΔCT method. […] Namely, all genes explored in this study were evaluated from the same cell cultures. […]

`CCC(OC)C(C)C1OC1C(O)C(C)/C=C/C=C(\C)C1OC(=O)CC(O)CCC(C)(O)C(OC(C)=O)/C=C/C1C` (stereo not shown) [Analog 1, FD-895, reference compound] was tested, and the GI50 was less than 10 nM.
